Reference: US9717731B2, “TEC family kinase inhibitor adjuvant therapy” (Pharmacyclics LLC, priority 2012, dated 2017)
At least one structure is not confirmed: it was looked up by name or label, or the drawing left a doubt.

Columns and labels:
[1] = test system: CD4+ T-cells; test: Flow cytometry of naïve and memory CD4+ T-cell subsets; assay type: cell-based, human; conditions: 24 hours anti-CD3/anti-CD28
[2] = test system: Jurkat cells; test: Calcium flux analysis in Jurkat cells; assay type: cell-based
[3] = test system: Leishmania major; test: In vivo model of Th2 dominant cutaneous leishmaniasis; parameters: species or system BALB/c mice; conditions: vs vehicle
[4] = test system: TCR signaling in Jurkat cells; test: Immunoblot of ibrutinib-pretreated, CD3/CD28 stimulated Jurkat cells

C=CC(=O)N1CCC[C@@H](n2nc(-c3ccc(Oc4ccccc4)cc3)c3c(N)ncnc32)C1 [ibrutinib]
naïve, central memory, effector memory, and terminal memory subsets [1]: unaffected
intracellular calcium flux in response to TCR stimulation [2]: significantly reduces
parasitic burden ([3]; footpad lesions): lower parasitic burden
cutaneous lesion size ([3]; 9 weeks): smaller cutaneous lesions
NFAT activity and ikBa phosphorylation on PMA/ionomycin ([4]; Jurkat cells): engaged regardless of ibrutinib treatment
IkBα, JunB, and NFAT signaling ([4]; Jurkat, CD3/CD28 stimulated): dose-dependent inhibition
Tyr180 autophosphorylation site of ITK ([4]; Jurkat, CD3/CD28 stimulated): functional inhibition
JunB and pSTAT6 signaling ([4]; Jurkat, brief exposure): inhibition
